No constants are given. Whether binding was seen depends on the method and setting. Binding seen in cells or lysates may run through a third protein. Some binding calls cover weakened binding; strength is not graded here.
Target: ATM kinase (human (endogenous in HeLa or C3ABR)) (UniProt Q13315)
Assay: co-IP; endogenous proteins; lysates of cells mock irradiated or 6 Gy IR (1 hr), immunoprecipitated with anti-ATM, anti-CHD4 or IgG, protein A and G beads; lysis buffer 50 mM Tris-HCl pH 7.4, 150 mM NaCl, 0.2% Triton-X 100, 0.3% Igepal CA-630; western blot

Chains of the proteins cited; added tags and fusions are not shown.
UniProt Q13315: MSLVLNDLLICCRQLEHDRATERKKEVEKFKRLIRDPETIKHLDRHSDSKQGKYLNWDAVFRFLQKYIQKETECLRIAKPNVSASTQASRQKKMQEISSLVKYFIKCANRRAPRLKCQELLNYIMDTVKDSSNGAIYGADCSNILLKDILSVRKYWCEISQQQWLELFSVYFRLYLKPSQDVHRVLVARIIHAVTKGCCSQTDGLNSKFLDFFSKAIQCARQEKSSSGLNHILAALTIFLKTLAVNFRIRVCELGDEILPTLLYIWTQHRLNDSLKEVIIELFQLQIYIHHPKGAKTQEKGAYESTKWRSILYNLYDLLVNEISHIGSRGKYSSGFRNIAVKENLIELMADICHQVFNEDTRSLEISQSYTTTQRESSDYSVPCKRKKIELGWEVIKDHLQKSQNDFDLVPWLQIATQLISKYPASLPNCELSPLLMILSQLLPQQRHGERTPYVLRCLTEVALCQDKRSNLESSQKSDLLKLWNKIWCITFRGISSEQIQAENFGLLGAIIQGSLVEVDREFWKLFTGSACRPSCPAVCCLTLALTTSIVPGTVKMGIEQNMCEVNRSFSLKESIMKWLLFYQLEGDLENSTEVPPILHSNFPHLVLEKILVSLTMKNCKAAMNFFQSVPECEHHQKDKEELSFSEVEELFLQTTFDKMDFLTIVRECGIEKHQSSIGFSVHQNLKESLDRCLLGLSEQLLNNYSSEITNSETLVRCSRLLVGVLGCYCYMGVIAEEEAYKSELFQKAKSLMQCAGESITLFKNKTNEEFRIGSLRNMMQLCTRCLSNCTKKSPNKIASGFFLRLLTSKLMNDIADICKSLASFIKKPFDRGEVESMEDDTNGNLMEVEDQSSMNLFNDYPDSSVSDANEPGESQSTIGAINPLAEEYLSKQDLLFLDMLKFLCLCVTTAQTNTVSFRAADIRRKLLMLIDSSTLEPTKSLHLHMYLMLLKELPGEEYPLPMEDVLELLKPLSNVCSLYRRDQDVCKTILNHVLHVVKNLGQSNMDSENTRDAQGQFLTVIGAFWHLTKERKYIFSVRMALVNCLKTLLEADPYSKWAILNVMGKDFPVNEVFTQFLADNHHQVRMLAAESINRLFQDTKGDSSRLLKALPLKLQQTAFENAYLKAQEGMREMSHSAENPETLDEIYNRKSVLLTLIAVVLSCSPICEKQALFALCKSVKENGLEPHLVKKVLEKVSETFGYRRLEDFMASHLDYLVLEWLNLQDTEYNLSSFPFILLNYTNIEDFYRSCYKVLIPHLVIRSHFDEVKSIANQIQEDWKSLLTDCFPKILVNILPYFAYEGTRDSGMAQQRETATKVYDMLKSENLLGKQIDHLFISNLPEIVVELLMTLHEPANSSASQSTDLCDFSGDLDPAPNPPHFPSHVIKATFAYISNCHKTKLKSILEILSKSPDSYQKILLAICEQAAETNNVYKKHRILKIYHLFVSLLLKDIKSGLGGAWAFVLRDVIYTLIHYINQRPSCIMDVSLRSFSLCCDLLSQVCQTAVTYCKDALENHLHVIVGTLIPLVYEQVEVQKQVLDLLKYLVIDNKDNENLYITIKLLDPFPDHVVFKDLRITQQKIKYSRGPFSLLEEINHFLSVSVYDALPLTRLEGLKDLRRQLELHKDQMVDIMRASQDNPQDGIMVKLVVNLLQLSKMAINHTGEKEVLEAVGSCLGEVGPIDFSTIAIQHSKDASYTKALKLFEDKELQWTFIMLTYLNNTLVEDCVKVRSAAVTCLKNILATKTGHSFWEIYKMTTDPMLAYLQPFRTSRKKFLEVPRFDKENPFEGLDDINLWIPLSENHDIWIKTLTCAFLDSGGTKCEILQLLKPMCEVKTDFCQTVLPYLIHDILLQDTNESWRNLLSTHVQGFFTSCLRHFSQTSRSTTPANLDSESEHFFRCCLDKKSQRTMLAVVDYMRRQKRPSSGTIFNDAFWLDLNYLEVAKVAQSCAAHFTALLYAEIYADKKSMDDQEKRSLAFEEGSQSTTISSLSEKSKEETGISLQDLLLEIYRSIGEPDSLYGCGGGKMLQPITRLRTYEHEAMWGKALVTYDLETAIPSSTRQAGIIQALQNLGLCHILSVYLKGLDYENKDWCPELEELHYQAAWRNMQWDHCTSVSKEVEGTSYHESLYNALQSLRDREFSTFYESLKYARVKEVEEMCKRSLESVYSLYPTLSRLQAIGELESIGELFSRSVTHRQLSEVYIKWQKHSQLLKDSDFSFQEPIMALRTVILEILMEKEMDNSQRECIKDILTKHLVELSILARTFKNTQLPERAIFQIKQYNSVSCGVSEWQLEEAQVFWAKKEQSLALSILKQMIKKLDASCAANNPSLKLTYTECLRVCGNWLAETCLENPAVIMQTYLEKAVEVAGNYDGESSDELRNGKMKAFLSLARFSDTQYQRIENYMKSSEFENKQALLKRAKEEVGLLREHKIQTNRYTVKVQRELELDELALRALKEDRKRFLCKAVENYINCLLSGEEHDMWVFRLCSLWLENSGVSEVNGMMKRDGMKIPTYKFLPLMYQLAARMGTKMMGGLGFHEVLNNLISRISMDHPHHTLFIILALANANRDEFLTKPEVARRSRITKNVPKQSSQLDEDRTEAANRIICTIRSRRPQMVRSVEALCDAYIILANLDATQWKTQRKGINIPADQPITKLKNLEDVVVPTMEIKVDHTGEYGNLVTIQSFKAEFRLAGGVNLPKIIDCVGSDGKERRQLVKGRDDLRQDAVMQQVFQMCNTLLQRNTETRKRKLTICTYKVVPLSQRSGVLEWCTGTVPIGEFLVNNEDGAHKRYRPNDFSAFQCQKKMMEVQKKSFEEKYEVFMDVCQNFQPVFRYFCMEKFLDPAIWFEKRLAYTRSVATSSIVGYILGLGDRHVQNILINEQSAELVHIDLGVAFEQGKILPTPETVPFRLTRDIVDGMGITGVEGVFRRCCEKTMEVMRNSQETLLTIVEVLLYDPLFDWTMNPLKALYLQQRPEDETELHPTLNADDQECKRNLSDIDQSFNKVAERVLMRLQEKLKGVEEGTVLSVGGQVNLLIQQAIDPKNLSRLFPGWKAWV
UniProt Q14839: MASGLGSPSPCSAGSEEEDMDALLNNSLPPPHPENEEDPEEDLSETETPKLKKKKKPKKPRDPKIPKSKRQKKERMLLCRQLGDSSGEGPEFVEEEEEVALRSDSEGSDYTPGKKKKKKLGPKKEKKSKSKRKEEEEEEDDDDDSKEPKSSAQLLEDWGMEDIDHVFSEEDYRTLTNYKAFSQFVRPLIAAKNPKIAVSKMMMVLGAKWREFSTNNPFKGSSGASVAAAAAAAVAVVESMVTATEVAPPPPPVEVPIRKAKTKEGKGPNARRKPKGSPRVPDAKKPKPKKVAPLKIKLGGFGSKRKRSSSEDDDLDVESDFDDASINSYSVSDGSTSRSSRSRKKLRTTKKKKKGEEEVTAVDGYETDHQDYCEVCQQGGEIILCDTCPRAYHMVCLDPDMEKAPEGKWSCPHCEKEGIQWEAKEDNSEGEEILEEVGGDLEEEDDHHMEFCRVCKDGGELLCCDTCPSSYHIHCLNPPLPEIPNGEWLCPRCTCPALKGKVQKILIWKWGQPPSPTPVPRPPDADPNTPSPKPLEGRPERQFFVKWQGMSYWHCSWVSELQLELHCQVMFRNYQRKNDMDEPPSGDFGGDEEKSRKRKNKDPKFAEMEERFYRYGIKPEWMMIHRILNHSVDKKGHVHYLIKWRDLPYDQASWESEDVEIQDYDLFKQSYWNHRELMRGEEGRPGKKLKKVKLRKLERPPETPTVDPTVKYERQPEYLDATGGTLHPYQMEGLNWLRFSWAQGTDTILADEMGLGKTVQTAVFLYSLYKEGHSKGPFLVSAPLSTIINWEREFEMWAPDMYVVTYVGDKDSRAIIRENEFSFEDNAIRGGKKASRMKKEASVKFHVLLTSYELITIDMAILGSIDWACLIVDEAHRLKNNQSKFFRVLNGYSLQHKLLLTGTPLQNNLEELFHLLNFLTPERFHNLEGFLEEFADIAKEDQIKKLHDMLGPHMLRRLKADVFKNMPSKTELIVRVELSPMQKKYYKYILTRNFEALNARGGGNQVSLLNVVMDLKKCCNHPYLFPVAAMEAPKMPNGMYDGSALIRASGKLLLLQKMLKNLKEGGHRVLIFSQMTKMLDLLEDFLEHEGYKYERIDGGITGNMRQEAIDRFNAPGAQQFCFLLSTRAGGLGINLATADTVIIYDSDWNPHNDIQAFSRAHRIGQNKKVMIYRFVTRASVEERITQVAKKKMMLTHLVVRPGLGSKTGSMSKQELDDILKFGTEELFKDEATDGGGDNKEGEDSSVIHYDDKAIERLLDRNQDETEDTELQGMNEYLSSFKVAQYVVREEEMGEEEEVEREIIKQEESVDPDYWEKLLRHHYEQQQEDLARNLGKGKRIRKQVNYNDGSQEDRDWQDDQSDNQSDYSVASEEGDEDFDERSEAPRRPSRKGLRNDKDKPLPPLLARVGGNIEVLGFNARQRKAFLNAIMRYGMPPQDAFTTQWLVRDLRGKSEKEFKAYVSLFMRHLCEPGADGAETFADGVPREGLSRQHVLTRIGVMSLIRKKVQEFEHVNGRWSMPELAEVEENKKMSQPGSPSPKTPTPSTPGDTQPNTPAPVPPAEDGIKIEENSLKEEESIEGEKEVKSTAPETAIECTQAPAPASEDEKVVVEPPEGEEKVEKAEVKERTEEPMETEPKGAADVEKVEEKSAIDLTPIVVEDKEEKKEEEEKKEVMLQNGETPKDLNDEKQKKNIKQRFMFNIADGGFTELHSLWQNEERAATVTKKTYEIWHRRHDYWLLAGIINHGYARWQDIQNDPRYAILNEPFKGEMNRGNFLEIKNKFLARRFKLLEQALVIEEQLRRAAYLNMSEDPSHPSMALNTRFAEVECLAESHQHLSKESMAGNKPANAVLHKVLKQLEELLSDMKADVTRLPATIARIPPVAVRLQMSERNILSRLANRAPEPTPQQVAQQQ

## chromodomain helicase DNA-binding protein (CHD4) (from UniProt Q14839 1-1912)
  binding: binds

Reference: paper PMC3035021
